Source: patent US20180073026
The exact form of at least one protein or probe is not confirmed. For some of these results: No signal at the amounts used counts as a negative.

Test system: RNA polymerase II
Assay: SELEX
Conditions: selected with yeast/human RNAP II; purified native protein

Row | Sequence | selection result
1 | AACUUCAAAAAAAAUUACAAAAAGUGCUUUCUGAACUGAACAAAAAAGAGUAAAGUUAGUCGCGUAAAGUACAUCU [yh3] | selected
2 | AAGCACUAAAGGCCCAUUCUUGCUCUAUGUAUCUGUGACUUAAGAUCUGCCAC [yh30] | selected
3 | AAGCACUACCCACCUGACAAUGUCUUCAUCCC [yh14] | selected
4 | ACGGCCACCAGACUCAUUCCUGCC [yh31] | selected
5 | AGCAUACAAAAUAUACCUUUCUCAAACAAGAAACAUCCC [yh15] | selected
6 | AUAUCAGCCAUGUACAUCCCUGUCCCCC [yh9] | selected
7 | AUUGCUUUUCCACACGGAUUCCAACCACUGC [yh12] | selected
8 | AUUGCUUUUCCACACGGAUUCCAACCGAUAUCAUAC [yh13] | selected
9 | AUUGCUUUUCCACACGGAUUCCAACCGCUAUCCAAACACUCAUCCC [yh32] | selected
10 | CACUUUGUACUUUAUUGGAGUUUUCCUCC [yh37] | selected
11 | CAGAUCAGGUCAGCUCAGGAUAAUUCAAAUUCAGAUAAUGAGGCACAGACUAAUCAUAACACGAAAAUUGUCAUCC [yh40] | selected
12 | CCAUACCAGCAUGAUGGAUACCAAAACCAAAUUGAAGAAUCUCCUUCC [yh11] | selected
13 | GAGCAAAUCAGGCAGUCCUUACCCACUCCCCUCCCUG [yh2] | selected
14 | GAGCAUACGUAGUUGUAGUUUUCAUUUUGAUGGCUUAACCUUCUUUGUCAGC [yh45] | selected
15 | GAGCAUAUUGGACAGGUUGUACUUGAUUAGAAAACACAAUCAUGCGGUAAUAUUAAGCCAUACUCAACAGCGCCAUCC [yh44] | selected
16 | GAGCCAACUACAUCGACCAAUUUACCAGAGGAUUCACCAUUAUGAUCACCAUCUUCC [yh27] | selected

Row | Sequence | selection result
17 | GAGCCUACAAAUUAAAUCUAGCCAGAAGCAUUCUAUCUUCC [yh38] | selected
18 | GAGCCUUAAACACUGACUUCCCAUUCCCUCUCCCC [yh16] | selected
19 | GAGCUAAGACACAGAUACCCAGAAAGAUCCAAACCUCUACCGCAAAGUCAAGGUAGACAUUUCCC [yh35] | selected
20 | GAGGCACACACUCACACACCCC [yh7] | selected
21 | GAGUCCCACACACACACCACACCACC [yh36] | selected
22 | GCAAAAUGAGUACUUAGACAUGCUCUGUAUUUGUGCUGUACAGUACGGUAACAC [yh6] | selected
23 | GCAGCAACACACACACACACACACCC [yh23] | selected
24 | GCAGCAACACACAGCACACACAUACACCCACCGUACUAAGCAUCC [yh26] | selected
25 | GCAGCAACCACACAUCUAUACGGCCUUGAAAACCCCAUCC [yh29] | selected
26 | GCAGCAACUUCAAAAAAAAUUACAAAAAGUGCUUUCUGAACUGAACAAAAAAGAGUAAAGUUAGUCGCGUAAAGUACAUCU [yh39] | selected
27 | GCAGCACUCACUUACACAUUCACACACACAACAUACACCCC [yh33] | selected
28 | GCAGCACUUAUGGUCCAUAUUAGUGUCUACUACCCUGGUUAUGGAAGGUUAUGAUACCGCACUACUGAACGCACUGUAUGCC [yh43] | selected
29 | GCAGCAGACACACGUACACACACACAUACAUAACCUAUC [yh21] | selected
30 | GCAGCAGCACUCAUCGGUUCAUCAUCUAUGUAAAGGUGCUUCUCCACCAUGUGC [yh28] | selected
31 | GCAGCAUAUCAGCCAUGUACAUCCCUGUCCCCC [yh22] | selected

Test system: RNA polymerase holoenzyme (core + sigma70) (Escherichia coli)
Assay: activity in cells
Conditions: GFP transcript vs no RAP; 8-14 fold read-through with rrnB/T7t terminators; protein in cells; protein details: endogenous, tested in E. coli reporter strains; dose not given here

Row | Sequence | functional effect of the aptamer
32 | GACAACAUGAGAACAGUUCAGCAGCACUA [RAP #5713] | > 2 fold

Same assay, conditions: active variant, 3' truncated by 6 nt; protein in cells; protein details: endogenous, tested in E. coli reporter strains; variant of RAP #5713; dose not given here

Row | Sequence | functional effect of the aptamer
33 | GACAACAUGAGAACAGUUCAGCA [5713_mut_0-6] | active

Same assay, conditions: active variant; protein in cells; protein details: endogenous, tested in E. coli reporter strains; variant of RAP #5713; dose not given here

Row | Sequence | functional effect of the aptamer
34 | GACAACAUGAGGGCGGUUCAGCAGCACUA [5713_mut_loop2] | active
35 | GACGGCAUGAGGGCAGGGCAGCAGCACUA [5713_mut_3gg] | active
36 | GACGGCAUGAGGGCAGUUCAGCAGCACUA [5713_mut_2gg] | active

Same assay, conditions: enhancing, at least 20% increase criterion; protein in cells; protein details: endogenous, tested in E. coli reporter strains; dose not given here

Row | Sequence | functional effect of the aptamer
37 | CAGCAAUCAACCAAUCCCGAAAGCAUACAGACUGGUG [RAP #15488] | active

Same assay, conditions: enhancing; protein in cells; protein details: endogenous, tested in E. coli reporter strains; dose not given here

Row | Sequence | functional effect of the aptamer
38 | AAUGCGUGAUUUCUUGUGCUUUCAGUCCCAGUUUUG [RAP #3439] | active
39 | AGCAGGUACAUUGUCCACAGACACUGCCAGAGCCCACUGUGUCC [RAP #10966] | active
40 | AGUACACCGGAUCCCAGAACCACCAGCCGCC [RAP #14542] | active
41 | AUCAUCAGGCGAUUGAAGUGGGUAUGGUGAACUAUCUGUGG [RAP #5151] | active
42 | AUUGAGUCGAAAUCGGUAUUCACCGGAUUGUACAGAUUGAGCCAUC [RAP #602] | active
43 | CACAAAUCACACAGCCCAUCACCC [RAP #14060] | active
44 | CAGCAUCACAUGACCGAUCGCCAUCAACAACGCCC [RAP #2464] | active
45 | CAGCAUGCAGCAGAUCCAGCGUGU [RAP #7866] | active
46 | CAGCCAGGUCACAAUACCCAGCAUCAACAUGUGGCAU [RAP #11884] | active
47 | CAGCUAACCCGAUGAUCACCGACUGACC [RAP #1220] | active
48 | CCAAGGUACCCAAGAAGCGCCCGCAGGAUCAAAAACUGCCAGAUAUUUU [RAP #3828] | active
49 | CCAGAGUUACCAAUACAGGUGGUACAACCGUAUCCCACAAGGUUAA [RAP #4555] | active
50 | CGACUAUGAUCAGAAUCGGGCCAUGUUAAACACCCUGAAUGUUGGUC [RAP #13404] | active
51 | CUAAACCAGGGUAGUCCGGCAGAGUAACGGUGACAUCACGAUAGCACCAU [RAP #15418] | active
52 | CUUGGGUUUGUUGAUUACGGAUAUUGAGCUUGUCAU [RAP #14079] | active
53 | GAGCACUAACAGUAAAGGAGUCAAUGAUGUCAGGAGAACACGUUUCAUC [RAP #9885] | active
54 | GCUAAGACGCAGUGCAAAAGUGGUAUCGGAAUGAUUCGUGUAGCCUUGCA [RAP #607] | active
55 | GGAAUCUGUUGGCGUGGAAUAAUCGGUGAGACGCAUCAUGUUGU [RAP #3600] | active
56 | GUUGCAGUGCGGAUGCUGUGUGAUGGCGCUAUACAAAAAAGUUGUCGAGUGA [RAP #4962] | active
57 | UGAUGAUCAGCACAUCUUCCAGAGCCAUGUCUUUCA [RAP #11531] | active

Same assay, conditions: inactive variant; binding itself not measured; protein in cells; protein details: endogenous, tested in E. coli reporter strains; variant of RAP #5713; dose not given here

Row | Sequence | functional effect of the aptamer
58 | GACAACAACAGAACAGUUGUGCAGCACUA [5713_mut_stem3] | not active
59 | GACAACACCCGAACAGUCCCGCAGCACUA [5713_mut_noStruct] | not active

Same assay, conditions: inhibiting, Rho-dependent, abolished by bicyclomycin; protein in cells; protein details: endogenous, tested in E. coli reporter strains; dose not given here

Row | Sequence | functional effect of the aptamer
60 | GCGUUUCAAAUGCGCAUCAACCUGCCACACUCCCCCACA [RAP #1086] | active

Same assay, conditions: inhibiting; protein in cells; protein details: endogenous, tested in E. coli reporter strains; dose not given here

Row | Sequence | functional effect of the aptamer
61 | AACCCUUCUGACGAUCCCAUUGCUGCAUCACAAGCCGUAGUUC [RAP #3930] | active
62 | ACAUGAUCACCGCGCUCUAUUCCGCUUCUGCUGAUUCCAUUCCUAUUCUGUG [RAP #1800] | active
63 | ACCAUCAACCACUGACCGACGAUUAGCUUACGCAGUUGCGCUCGCCCUG [RAP #1760] | active
64 | ACCUGGUUGACGAAGCUAAACGUCUGCUGACCACCUGCAACAUCCCGGUUCCGUC [RAP #10070] | active
65 | CAAGCCACCACAUCGCAAAUGUGCCAGGAGCGACCUGUUCUUGUUCAAUUUCU [RAP #15003] | active
66 | CAAUGUCCAUACUUAAUGUCGAGAGGAUCUCCACCAUCUCAAC [RAP #9505] | active
67 | CAGCGCCAUAAAGCCGAUGAUCAUCCACUCAACGUUGACGUAGUUGCAGAACACCAUCACC [RAP #9533] | active
68 | CAGCGCCAUGAGCGUGAUCCACAUACCAAUAAAUUCGUCCCAGACAAUGCUGCCAUGAUCG [RAP #1436] | active
69 | CCAGUCGGCAAACAUUCCCAUCCAGACACCAACCA [RAP #6819] | active
70 | CGGGCAUAUUGCGUGAUUUGUGCCAACCGAUGAUUACUUUCCCCUGC [RAP #4599] | active
71 | CUGUUCCAUGUUAAGCAGAUCCCCUGUCGAACCCGUUCAAAGCACUGCACC [RAP #803] | active
72 | CUUCGACAUCCGCUUCGUGGUGGAAAUACCCAUCCAGCAGGCCGACAAGGUUGGUUUUACGUACUGGAUCUUCUUUGC [RAP #10822] | active
73 | UACAUCAGCCCUGCAAUCAGCAAUCCCGGCAGCAACACUCCCCAGCCA [RAP #15592] | active
74 | UACCACCAAACCAACGUACAGAGCGUACAAGCCAACAUUGCCC [RAP #10243] | active
75 | UCAUGACGCAGCUGAUGAUCCACAUUCUUUACCCACACAAAUUCAUGUCCUUU [RAP #5039] | active
76 | UCCAACCCGUAUUCCUCGAAGUAGUGGAUGAAAGCUAUCGUCACAAU [RAP #1510] | active
77 | UGCCAGAUCAGAACGCAGCAUUUCCUCAACAUCUUCACCAAUGUUCA [RAP #11599] | active
78 | UUAAACGAAUGUCUGCAUAUAUUGUGGCGUAUUCGCUUUGCCCUGCAUCUG [RAP #683] | active
79 | UUCGUUUUCCCAACCUGAAUCUCGACAACUCCGUCCACAUCAC [RAP #9559] | active
